Source: US20230119479A1, “A HISTONE DEACETYLASE INHIBITOR HAVING A NITROGEN-CONTAINING AROMATIC HETEROCYCLYL GROUP” (SHIONOGI & CO., LTD., priority 2019, published 2023)
Some entries share one result that the patent states for a list of compounds.

Amino acid sequences for entries named in this document (tags omitted).
UniProt P08684, whole entry: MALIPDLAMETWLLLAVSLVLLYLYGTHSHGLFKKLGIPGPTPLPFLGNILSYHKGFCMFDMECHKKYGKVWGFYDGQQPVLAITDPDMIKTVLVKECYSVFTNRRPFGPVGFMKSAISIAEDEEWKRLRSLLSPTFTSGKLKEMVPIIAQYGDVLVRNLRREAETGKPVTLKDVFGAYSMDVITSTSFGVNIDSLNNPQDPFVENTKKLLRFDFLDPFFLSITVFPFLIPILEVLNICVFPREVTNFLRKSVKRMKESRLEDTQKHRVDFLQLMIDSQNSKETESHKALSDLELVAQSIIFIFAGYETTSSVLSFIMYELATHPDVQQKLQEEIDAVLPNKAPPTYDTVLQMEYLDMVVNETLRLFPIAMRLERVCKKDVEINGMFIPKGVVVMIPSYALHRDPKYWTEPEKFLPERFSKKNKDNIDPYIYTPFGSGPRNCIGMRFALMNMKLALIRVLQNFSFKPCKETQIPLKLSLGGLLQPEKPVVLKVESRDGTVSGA

target: T1, CYP3A4 (Homo sapiens, UniProt P08684); test: CYP3A4 (MDZ) MBI test; format: in vitro ADME; conditions: pooled human liver microsomes; preincubation 0 vs 30 min; 1, 5, 10, 20 μmol/L
T1 construct: from tissue; host or cells: pooled human liver microsomes

Row | SMILES | CYP3A4 (MDZ) MBI, shifted IC judgement
1 | C[C@H](F)COc1cnc(C(=O)Nc2cc(-c3ccc(F)nc3)ccc2N)cn1 (racemic) [Compound I-125] | negative (When a shifted IC was 1.0 or less, this was defined as negative)
2 | Cn1cc(-c2ccc(N)c(NC(=O)c3cnc(OCC(F)F)cn3)c2)cn1 [Compound I-152] | negative (When a shifted IC was 1.0 or less, this was defined as negative)
3 | CN(C)c1cnc(C(=O)Nc2cc(-c3ccc(F)nc3)ccc2N)cn1 [Compound I-178] | negative (When a shifted IC was 1.0 or less, this was defined as negative)
4 | CN(C)c1ccc(C(=O)Nc2cc(-c3cnn(C)c3)ccc2N)nc1 [Compound I-177] | negative (When a shifted IC was 1.0 or less, this was defined as negative)
5 | N#Cc1ccc(C(=O)Nc2cc(-c3ccc(F)nc3)ccc2N)nc1 [Compound I-092] | negative (When a shifted IC was 1.0 or less, this was defined as negative)
6 | CN(C)c1cnc(C(=O)Nc2cc(-c3cnn(C)c3)ccc2N)cn1 [Compound I-179] | negative (When a shifted IC was 1.0 or less, this was defined as negative)
7 | Nc1ccc(-c2ccc(F)nc2)cc1NC(=O)c1ccc2ocnc2n1 [Compound I-148] | negative (When a shifted IC was 1.0 or less, this was defined as negative)
8 | Cn1cc(-c2ccc(N)c(NC(=O)c3cnc(C4CC4)cn3)c2)cn1 [Compound I-130] | negative (When a shifted IC was 1.0 or less, this was defined as negative)
9 | CCOc1cnc(C(=O)Nc2cc(-c3ccc(F)nc3)ccc2N)cn1 [Compound I-118] | negative (When a shifted IC was 1.0 or less, this was defined as negative)
10 | Cn1cc(-c2cnc(C(=O)Nc3cc(-c4ccc(F)nc4)ccc3N)cn2)cn1 [Compound I-080] | negative (When a shifted IC was 1.0 or less, this was defined as negative)
11 | Cc1ccc(C(=O)Nc2cc(-c3cnn(C)c3)ccc2N)nc1 [Compound I-155] | negative (When a shifted IC was 1.0 or less, this was defined as negative)
